# Tested on: short-time memory
# Assay: Passive avoidance ("Skinner box") test, reversal of scopolamine-induced blocking of short-time memory
# Assay type: in vivo, rats
# Conditions: scopolamine 0.3 mg/kg intraperitoneally and distilled water orally; during 3-4 hours
structure (smiles),measurement,value
CN1[C@@H]2C[C@@H](OC(=O)[C@H](CO)c3ccccc3)C[C@H]1[C@@H]1O[C@@H]12 [scopolamine],animals with retrograde effect on the short-time memory (have forgotten that they must remain on the platform),85-92%
